Data as given in PubChem BioAssay AID1259308 (NCATS, 2017)

Test: 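Candidate targets for better recombinant protein yield in mammalian cells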 (primary screen)
Cells: human HEK293 embryonic kidney cells stably expressing firefly luciferase (HEK-CMV-Luc2-Hygro)
Reagents: single siRNA against human genes, 0.8 pmol siRNA per well
Time to read-out: 72 h
Read-out: 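Reporter luminescence and viable-cell signal on separate replicate plates, given as percent of non-targeting control and median/MAD z-scores, plus per-cell luciferase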
Direction: total luciferase, z-score and total luciferase, % of control: higher = more reporter protein produced
Rule for the call: 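Active when the median/MAD z-score for overall luciferase is greater than 3; a gene was taken forward for validation with new siRNAs if at least two of its three siRNAs passed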
Calls: active = raised luciferase; inactive = no rise
This is a random part of about 59,000 reagents. Over the whole deposit, about 1,510 (2.6%) were called active. 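Calls use total luciferase alone and ignore viability, so some active siRNAs may act by altering cell number.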 Unmarked entries are inactive. Reagents against one gene are numbered here. Not all columns of the deposit are shown.

With LINC01600 #1, how do the results read?
total luciferase, z-score: 0.0534; total luciferase, % of control: 82.9

How did the screen score LINC01600 #2?
total luciferase, z-score: -1.07; total luciferase, % of control: 60.6

What is on record for LINC01600 #3?
total luciferase, z-score: 0.076; total luciferase, % of control: 83.4

For NCBP2 #1, what was measured?
total luciferase, z-score: 0.0122; total luciferase, % of control: 82.1

With NCBP2 #2, what does the deposit list?
total luciferase, z-score: -2.38; total luciferase, % of control: 34.5

Which result is listed for NCBP2 #3?
total luciferase, z-score: 1.83; total luciferase, % of control: 118

For CD38 #1, how do the results read?
total luciferase, z-score: 0.236; total luciferase, % of control: 86.6

With CD38 #2, what was measured?
total luciferase, z-score: -1.78; total luciferase, % of control: 46.6

With CD38 #3, what does the deposit list?
total luciferase, z-score: -1.2; total luciferase, % of control: 57.9

Which result is listed for VSIG2 #1?
total luciferase, z-score: 0.244; total luciferase, % of control: 86.7

What is on record for VSIG2 #2?
total luciferase, z-score: -0.28; total luciferase, % of control: 76.3

With VSIG2 #3, how do the results read?
total luciferase, z-score: -1.05; total luciferase, % of control: 61

For S1PR5 #1, what was measured?
total luciferase, z-score: -0.676; total luciferase, % of control: 68.4

How did the screen score S1PR5 #2?
total luciferase, z-score: -0.244; total luciferase, % of control: 77

Which result is listed for S1PR5 #3?
total luciferase, z-score: 1.56; total luciferase, % of control: 113

No new results follow: 2 of the entries above.
VSIG2 #3 → total luciferase, z-score = -1.05; total luciferase, % of control = 61
S1PR5 #1 → total luciferase, z-score = -0.676; total luciferase, % of control = 68.4

Additional results follow:
Which result is listed for MDFI #1?
total luciferase, z-score: -2.28; total luciferase, % of control: 36.6

What did the screen give for MDFI #2?
total luciferase, z-score: 0.0593; total luciferase, % of control: 83.1

With MDFI #3, what does the deposit list?
total luciferase, z-score: -1.54; total luciferase, % of control: 51.2

Which result is listed for GEMIN2 #1?
total luciferase, z-score: 3.03 (active); total luciferase, % of control: 142

What is on record for GEMIN2 #2?
total luciferase, z-score: 1.3; total luciferase, % of control: 108

For GEMIN2 #3, what was measured?
total luciferase, z-score: 1.06; total luciferase, % of control: 103

How did the screen score NIF3L1 #1?
total luciferase, z-score: 0.292; total luciferase, % of control: 87.7

For NIF3L1 #2, how do the results read?
total luciferase, z-score: 1.62; total luciferase, % of control: 114

For NIF3L1 #3, what was measured?
total luciferase, z-score: -0.17; total luciferase, % of control: 78.5

What is on record for PCK1 #1?
total luciferase, z-score: 1.23; total luciferase, % of control: 106

For PCK1 #2, what was measured?
total luciferase, z-score: 0.655; total luciferase, % of control: 94.9

For PCK1 #3, how do the results read?
total luciferase, z-score: -1.14; total luciferase, % of control: 59.2

With AKAP1 #1, what was measured?
total luciferase, z-score: -0.986; total luciferase, % of control: 62.3

How did the screen score AKAP1 #2?
total luciferase, z-score: 0.317; total luciferase, % of control: 88.2

Which result is listed for AKAP1 #3?
total luciferase, z-score: -2; total luciferase, % of control: 42.2

What did the screen give for DPYS #1?
total luciferase, z-score: -0.776; total luciferase, % of control: 66.5

For DPYS #2, what does the deposit list?
total luciferase, z-score: 0.0791; total luciferase, % of control: 83.5

With DPYS #3, what was measured?
total luciferase, z-score: 0.248; total luciferase, % of control: 86.8

What did the screen give for PTGIR #1?
total luciferase, z-score: 1.22; total luciferase, % of control: 106

With PTGIR #2, how do the results read?
total luciferase, z-score: 0.345; total luciferase, % of control: 88.7

Which result is listed for PTGIR #3?
total luciferase, z-score: 0.901; total luciferase, % of control: 99.8

With KRTAP19-4 #1, how do the results read?
total luciferase, z-score: 0.0669; total luciferase, % of control: 83.2

For KRTAP19-4 #2, how do the results read?
total luciferase, z-score: -0.813; total luciferase, % of control: 65.7

For KRTAP19-4 #3, how do the results read?
total luciferase, z-score: -0.79; total luciferase, % of control: 66.2

What did the screen give for ASB5 #1?
total luciferase, z-score: 0.00689; total luciferase, % of control: 82

For ASB5 #2, what was measured?
total luciferase, z-score: 0.584; total luciferase, % of control: 93.5

With ASB5 #3, what does the deposit list?
total luciferase, z-score: -0.708; total luciferase, % of control: 67.8
